From the supplement of paper PMC11732987, “Enantioselective OTUD7B fragment discovery through chemoproteomics screening and high-throughput optimisation” (Communications Chemistry, 2025)
Some of the results follow. The data scatter; read single values as rough.

By UniProt entry, the sequences of proteins in these tests, tags left out. Where a name states a change or a piece, a line headed by the entry shows the natural chain unless it says otherwise. Residues count along the entry.
UniProt Q4VCS5: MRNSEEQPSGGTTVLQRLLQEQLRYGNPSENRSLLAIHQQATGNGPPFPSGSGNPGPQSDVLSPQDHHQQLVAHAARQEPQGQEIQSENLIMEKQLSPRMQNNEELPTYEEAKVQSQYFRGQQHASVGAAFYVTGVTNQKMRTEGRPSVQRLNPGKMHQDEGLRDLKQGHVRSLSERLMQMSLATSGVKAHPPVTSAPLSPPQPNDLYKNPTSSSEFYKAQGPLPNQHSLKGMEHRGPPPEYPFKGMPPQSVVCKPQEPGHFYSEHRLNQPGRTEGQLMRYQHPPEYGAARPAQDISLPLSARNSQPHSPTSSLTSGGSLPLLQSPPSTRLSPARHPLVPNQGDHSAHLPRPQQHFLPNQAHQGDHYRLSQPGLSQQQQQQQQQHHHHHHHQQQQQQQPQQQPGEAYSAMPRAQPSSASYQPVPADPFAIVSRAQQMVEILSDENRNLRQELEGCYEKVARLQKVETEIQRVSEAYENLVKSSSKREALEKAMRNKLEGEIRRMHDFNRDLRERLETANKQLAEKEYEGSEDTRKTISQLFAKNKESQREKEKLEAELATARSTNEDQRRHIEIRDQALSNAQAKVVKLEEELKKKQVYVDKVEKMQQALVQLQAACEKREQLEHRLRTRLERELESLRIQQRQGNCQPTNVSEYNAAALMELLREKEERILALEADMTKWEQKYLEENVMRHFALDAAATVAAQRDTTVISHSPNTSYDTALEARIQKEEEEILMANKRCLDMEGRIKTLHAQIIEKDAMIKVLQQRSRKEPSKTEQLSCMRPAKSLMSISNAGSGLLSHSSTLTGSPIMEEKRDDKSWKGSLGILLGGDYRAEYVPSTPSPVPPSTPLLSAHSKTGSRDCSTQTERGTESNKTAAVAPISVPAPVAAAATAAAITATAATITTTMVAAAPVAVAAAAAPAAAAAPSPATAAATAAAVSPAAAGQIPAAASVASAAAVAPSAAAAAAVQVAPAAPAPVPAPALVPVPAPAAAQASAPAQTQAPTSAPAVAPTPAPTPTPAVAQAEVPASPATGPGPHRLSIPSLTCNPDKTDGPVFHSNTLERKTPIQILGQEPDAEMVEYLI
UniProt P31751: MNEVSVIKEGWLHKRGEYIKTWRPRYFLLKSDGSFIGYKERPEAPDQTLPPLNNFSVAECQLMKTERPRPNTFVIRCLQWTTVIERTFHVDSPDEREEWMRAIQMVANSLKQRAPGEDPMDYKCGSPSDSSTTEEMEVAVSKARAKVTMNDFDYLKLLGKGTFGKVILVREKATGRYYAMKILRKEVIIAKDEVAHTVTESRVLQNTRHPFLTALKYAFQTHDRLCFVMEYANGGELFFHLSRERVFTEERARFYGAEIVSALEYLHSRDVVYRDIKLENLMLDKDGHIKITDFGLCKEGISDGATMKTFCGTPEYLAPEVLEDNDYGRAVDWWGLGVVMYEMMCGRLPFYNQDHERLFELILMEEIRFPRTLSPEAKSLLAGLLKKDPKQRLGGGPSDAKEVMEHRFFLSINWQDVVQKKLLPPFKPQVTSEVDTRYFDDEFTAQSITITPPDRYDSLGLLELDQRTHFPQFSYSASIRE
UniProt Q9Y4W6: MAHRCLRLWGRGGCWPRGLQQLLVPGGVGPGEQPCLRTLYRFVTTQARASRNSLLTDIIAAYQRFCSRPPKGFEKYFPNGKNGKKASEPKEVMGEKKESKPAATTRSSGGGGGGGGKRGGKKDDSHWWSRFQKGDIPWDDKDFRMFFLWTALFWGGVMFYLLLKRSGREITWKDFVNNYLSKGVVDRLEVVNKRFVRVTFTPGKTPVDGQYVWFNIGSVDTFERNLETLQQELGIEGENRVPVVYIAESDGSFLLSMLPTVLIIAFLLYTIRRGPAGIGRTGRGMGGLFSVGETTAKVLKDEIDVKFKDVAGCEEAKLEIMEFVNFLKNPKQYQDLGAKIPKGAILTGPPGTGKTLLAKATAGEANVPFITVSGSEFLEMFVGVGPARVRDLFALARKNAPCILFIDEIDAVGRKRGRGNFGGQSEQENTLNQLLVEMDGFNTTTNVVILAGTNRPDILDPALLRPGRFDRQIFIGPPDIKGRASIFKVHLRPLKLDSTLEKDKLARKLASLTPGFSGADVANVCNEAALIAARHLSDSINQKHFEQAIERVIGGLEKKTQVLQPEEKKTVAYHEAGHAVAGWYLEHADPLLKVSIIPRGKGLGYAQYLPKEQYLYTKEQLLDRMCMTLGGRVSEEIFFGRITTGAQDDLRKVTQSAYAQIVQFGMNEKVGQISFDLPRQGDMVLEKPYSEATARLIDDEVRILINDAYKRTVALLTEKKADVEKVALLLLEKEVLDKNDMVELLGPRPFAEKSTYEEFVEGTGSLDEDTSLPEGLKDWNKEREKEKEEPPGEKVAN
UniProt Q3SY69: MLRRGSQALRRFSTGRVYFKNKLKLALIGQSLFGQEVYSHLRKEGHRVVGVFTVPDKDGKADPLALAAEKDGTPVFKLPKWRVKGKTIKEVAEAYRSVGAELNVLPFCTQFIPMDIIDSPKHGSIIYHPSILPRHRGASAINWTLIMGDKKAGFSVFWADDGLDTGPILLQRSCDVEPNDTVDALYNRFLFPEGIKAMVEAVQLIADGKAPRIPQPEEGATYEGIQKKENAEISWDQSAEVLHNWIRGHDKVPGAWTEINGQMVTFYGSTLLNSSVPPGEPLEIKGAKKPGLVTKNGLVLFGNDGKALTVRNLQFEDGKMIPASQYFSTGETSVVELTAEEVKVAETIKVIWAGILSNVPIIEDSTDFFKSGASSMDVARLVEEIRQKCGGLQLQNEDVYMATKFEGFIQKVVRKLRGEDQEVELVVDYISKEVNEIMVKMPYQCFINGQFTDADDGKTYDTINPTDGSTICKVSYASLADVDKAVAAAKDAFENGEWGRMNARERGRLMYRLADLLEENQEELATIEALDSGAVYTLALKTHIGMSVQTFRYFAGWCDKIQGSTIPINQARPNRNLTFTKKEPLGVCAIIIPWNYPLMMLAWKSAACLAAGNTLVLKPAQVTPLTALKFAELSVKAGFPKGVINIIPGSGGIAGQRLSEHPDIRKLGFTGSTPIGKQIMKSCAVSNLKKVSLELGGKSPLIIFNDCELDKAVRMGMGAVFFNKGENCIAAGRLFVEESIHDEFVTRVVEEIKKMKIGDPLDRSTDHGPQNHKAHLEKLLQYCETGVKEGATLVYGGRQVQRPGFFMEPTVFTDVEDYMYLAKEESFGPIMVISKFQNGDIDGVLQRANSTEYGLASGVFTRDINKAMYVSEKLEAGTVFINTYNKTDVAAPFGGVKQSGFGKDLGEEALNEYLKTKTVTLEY
UniProt Q9UJX3, 82-105: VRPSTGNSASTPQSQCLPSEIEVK
UniProt P51825: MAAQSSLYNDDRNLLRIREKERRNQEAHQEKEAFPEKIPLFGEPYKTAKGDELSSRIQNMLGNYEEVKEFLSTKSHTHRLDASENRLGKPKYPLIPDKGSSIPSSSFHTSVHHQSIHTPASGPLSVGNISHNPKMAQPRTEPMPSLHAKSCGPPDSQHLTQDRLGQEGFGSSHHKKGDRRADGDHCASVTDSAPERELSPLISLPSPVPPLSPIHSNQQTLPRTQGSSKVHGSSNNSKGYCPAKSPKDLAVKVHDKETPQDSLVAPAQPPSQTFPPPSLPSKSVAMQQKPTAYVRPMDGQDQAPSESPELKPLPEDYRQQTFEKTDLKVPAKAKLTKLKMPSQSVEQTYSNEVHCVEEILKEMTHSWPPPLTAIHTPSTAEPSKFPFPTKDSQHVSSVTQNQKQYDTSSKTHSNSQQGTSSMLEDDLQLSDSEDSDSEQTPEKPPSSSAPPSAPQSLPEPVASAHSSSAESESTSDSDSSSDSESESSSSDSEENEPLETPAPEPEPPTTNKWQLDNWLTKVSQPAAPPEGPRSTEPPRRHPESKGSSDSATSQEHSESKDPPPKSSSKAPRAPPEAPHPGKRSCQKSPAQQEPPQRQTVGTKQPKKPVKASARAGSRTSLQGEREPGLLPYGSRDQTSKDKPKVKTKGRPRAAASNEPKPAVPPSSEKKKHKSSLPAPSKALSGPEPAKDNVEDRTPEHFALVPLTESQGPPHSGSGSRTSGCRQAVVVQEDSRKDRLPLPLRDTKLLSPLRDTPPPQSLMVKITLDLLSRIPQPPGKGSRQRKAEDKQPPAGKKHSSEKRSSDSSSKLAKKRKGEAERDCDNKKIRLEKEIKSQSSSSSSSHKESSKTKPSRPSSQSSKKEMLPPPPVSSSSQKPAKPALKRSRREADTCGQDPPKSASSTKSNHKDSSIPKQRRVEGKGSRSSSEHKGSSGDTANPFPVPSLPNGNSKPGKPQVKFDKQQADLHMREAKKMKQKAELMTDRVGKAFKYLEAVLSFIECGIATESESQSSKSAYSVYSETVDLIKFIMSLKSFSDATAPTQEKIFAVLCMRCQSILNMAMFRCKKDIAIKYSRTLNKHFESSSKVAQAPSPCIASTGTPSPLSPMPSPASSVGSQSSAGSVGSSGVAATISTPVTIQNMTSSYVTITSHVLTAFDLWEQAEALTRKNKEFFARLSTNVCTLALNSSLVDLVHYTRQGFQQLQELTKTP
UniProt Q99798, 118-138: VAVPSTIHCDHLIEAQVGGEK
UniProt P31749: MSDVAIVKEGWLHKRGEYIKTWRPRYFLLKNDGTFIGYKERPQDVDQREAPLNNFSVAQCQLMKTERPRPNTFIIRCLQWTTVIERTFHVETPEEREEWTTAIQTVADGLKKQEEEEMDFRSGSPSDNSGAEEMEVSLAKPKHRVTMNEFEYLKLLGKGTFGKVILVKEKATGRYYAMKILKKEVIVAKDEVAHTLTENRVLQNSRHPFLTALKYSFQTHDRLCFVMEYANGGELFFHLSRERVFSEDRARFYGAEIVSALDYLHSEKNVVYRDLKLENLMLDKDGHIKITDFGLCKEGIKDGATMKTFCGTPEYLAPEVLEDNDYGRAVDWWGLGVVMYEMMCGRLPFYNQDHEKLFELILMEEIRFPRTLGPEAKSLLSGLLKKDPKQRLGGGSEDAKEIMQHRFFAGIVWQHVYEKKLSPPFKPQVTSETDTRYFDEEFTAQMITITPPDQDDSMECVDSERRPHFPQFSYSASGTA
UniProt Q8N302: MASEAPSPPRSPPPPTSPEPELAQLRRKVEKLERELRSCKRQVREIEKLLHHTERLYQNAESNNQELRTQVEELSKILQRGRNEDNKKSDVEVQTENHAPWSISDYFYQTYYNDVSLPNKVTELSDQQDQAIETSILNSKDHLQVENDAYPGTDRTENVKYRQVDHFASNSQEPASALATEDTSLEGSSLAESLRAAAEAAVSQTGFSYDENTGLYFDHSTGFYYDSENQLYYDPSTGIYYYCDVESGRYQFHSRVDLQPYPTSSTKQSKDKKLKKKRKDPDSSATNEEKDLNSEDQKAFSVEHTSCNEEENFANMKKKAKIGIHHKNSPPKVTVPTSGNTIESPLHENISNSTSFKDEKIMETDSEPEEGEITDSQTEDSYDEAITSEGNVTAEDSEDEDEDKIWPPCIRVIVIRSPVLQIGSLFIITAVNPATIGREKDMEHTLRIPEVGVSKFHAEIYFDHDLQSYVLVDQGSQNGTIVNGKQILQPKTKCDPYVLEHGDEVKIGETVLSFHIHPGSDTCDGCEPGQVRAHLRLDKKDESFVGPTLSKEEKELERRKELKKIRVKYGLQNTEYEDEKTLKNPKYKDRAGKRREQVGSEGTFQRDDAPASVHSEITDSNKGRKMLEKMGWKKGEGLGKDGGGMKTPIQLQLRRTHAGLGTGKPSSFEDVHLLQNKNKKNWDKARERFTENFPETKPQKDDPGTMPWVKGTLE
UniProt Q13155: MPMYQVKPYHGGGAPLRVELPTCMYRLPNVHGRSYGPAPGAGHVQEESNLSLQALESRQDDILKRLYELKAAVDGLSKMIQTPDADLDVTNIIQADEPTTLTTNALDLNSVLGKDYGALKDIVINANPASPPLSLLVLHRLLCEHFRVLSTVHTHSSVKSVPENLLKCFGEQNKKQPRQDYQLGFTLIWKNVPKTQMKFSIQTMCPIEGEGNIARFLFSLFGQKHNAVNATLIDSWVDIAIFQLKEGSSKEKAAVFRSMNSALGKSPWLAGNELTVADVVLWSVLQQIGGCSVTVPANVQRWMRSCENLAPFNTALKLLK
UniProt P49419: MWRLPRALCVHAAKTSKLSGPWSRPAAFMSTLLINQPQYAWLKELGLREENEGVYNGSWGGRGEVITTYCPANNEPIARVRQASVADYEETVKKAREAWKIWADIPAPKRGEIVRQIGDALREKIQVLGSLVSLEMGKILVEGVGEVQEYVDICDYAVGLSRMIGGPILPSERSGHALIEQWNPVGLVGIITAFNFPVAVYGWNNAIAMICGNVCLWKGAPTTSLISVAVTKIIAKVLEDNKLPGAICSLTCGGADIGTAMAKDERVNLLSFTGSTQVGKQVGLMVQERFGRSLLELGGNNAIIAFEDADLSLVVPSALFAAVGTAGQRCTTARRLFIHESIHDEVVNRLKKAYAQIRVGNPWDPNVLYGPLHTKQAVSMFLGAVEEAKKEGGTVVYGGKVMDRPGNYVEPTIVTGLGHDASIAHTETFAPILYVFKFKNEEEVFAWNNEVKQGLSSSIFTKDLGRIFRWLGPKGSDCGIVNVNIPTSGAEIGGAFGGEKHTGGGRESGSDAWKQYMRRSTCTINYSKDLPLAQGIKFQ

Experiments:
[1] = compound: ClCC(=O)N[C@@H]1CCCc2ccccc12; experiment: log2 mean competition ratio of IA-DTB cysteine labelling (DMSO/compound) (log2 ratio); higher = stronger cysteine engagement by compound; conditions: treatment time: 4 h, cell line lysate: HEK293T
Description: (§1)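 IA-DTB competitive cysteine chemoproteomics in HEK293T RIPA lysate. Lysates were treated with compound 29 or 30 at 50 or 200 µM for 4 h, then IA-DTB (500 µM, 1 h), trypsin-digested, NeutrAvidin-enriched and analysed by diaPASEF. Competition ratio = intensity DMSO / intensity compound (n=4 treated, n=64 DMSO); binding: mean log2 CR ≥ 1 and p ≤ 0.05 plus QC filters. Target is the cysteine site.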

[2] = compound: ClCC(=O)N[C@H]1CCCc2ccccc12; experiment: as above; conditions: treatment time: 4 h, cell line lysate: HEK293T
Description: as §1

| Target | log2 mean competition ratio ([1]; 50 µM) | log2 mean competition ratio ([1]; 200 µM) | log2 mean competition ratio ([2]; 50 µM) | log2 mean competition ratio ([2]; 200 µM) |
| --- | --- | --- | --- | --- |
| AHR C639 | -0.345 | 0.19 | 0.0214 | 0.22 |
| AKAP9 C2765 (UniProt Q99996) | 0.183 | 0.128 | -0.296 | 0.254 |
| ALX1 C99 | -0.0593 | 0.211 | -0.283 | 0.137 |
| AMOT C741 (UniProt Q4VCS5) | -0.154 | 0.244 | -0.0786 | 0.264 |
| ACTG1 C285 | -0.0387 | -0.0956 | -0.163 | -0.0415 |
| AKT2 C77 (UniProt P31751) | 0.438 | 0.0733 | 0.148 | -0.0493 |
| AFG3L2 C626 (UniProt Q9Y4W6) | 0.268 | -0.0272 | 0.0421 | -0.116 |
| ALDH1L2 C472 (UniProt Q3SY69) | -0.207 | 0.109 | 0.0426 | 0.104 |
| ANAPC7 C97 (UniProt Q9UJX3) | 0.281 | 0.308 | 0.646 | 0.0218 |
| AFF1 C151 (UniProt P51825) | -0.0617 | -0.0748 | 0.273 | -0.0307 |
| ACO2 C592 (UniProt Q99798) | 0.279 | -0.0165 | -0.279 | -0.161 |
| AKT1 C60 (UniProt P31749) | 1 | 0.119 | 0.26 | 0.0843 |
| ALDH1L2 C728 (UniProt Q3SY69) | 0.0628 | 0.375 | 0.219 | 0.083 |
| ACO2 C126 (UniProt Q99798) | -0.0896 | -0.312 | -0.117 | -0.356 |
| ALDH1L2 C783 (UniProt Q3SY69) | 0.0306 | -0.0559 | -0.144 | -0.0487 |
| AMOT C455 (UniProt Q4VCS5) | -0.334 | 0.153 | -0.541 | 0.0906 |
| ACTR3 C235 (UniProt P61158) | 0.241 | 0.0472 | -0.193 | 0.0382 |
| AGGF1 C494 (UniProt Q8N302) | -0.217 | -0.314 | -0.416 | -0.199 |
| ACTR2 C221 (UniProt P61160) | 0.329 | -0.111 | 0.363 | -0.233 |
| AGBL5 C377 | 0.08 | -0.164 | -0.0114 | -0.509 |
| ADRM1 C121 (UniProt Q16186) | -0.308 | 0.255 | -0.325 | 0.335 |
| AIMP2 C205 (UniProt Q13155) | -0.0429 | -0.415 | -0.292 | -0.513 |
| ALDH7A1 C522 (UniProt P49419) | 0.328 | 0.0177 | 0.256 | 0.0465 |

Limited to log2 mean competition ratio ([1]; 200 µM) and log2 mean competition ratio ([2]; 200 µM) (2 entries from above):
Target	log2 mean competition ratio ([1]; 200 µM)	log2 mean competition ratio ([2]; 200 µM)
ALX1 C99	0.211	0.137
AMOT C741 (UniProt Q4VCS5)	0.244	0.264
